Consider 3 compounds from PMC4972190, “In vitro activity of salinomycin and monensin derivatives against Trypanosoma brucei” (Parasites & Vectors, 2016).

The subject of this data set is Bloodstream forms of T. brucei (clone 427-221a). The experiment in a line: Toxicity assay (resazurin, 72 h) on bloodstream forms of T. brucei. It is filed as cell-based, Trypanosoma brucei. The following applies: relative to salinomycin. As to the method:
Bloodstream forms of T. brucei (clone 427-221a) and human myeloid leukaemia HL-60 cells were grown in Baltz medium and RPMI medium, respectively. Both culture media were supplemented with 16.7 % (v/v) heat-inactivated foetal calf serum. All cultures were maintained in a humidified atmosphere containing 5 % CO2 at 37 °C.
Cells were seeded in 96-well plates in a final volume of 200 μl of their respective culture medium containing 10-fold serial dilutions of ionophore derivatives (10^-4 to 10^-10 M) and 1 % DMSO. Wells containing medium and 1 % DMSO served as controls. The initial cell densities were 1 × 10^4/ml for T. brucei and 1 × 10^5/ml for HL-60 cells. After 24 h incubation at 37 °C in a humidified atmosphere containing 5 % CO2, 20 μl of a 0.44 mM resazurin solution prepared in PBS was added and the cells were incubated for a further 48 h so that the total incubation time was 72 h. Thereafter, the plates were read on a microplate reader using a test wavelength of 570 nm and a reference wavelength of 630 nm. The 50 % growth inhibition (GI50) value, i.e. the concentration of a compound necessary to reduce the growth rate of cells by 50 % compared to the control was determined by linear interpolation according to the method described in [22]. The minimum inhibitory concentration (MIC) values, i.e. the concentration of the drug at which all trypanosome and human cells were killed, was determined microscopically. Each compound was independently tested three times.
For orientation: Resazurin is reduced to fluorescent resorufin, in cell work by metabolically active cells.

Turning to `CCCCOC(=O)C(CC)C1CCC(C)C(C(C)C(O)C(C)C(=O)C(CC)C2OC3(C=CC(O)C4(CCC(C)(C5CCC(O)(CC)C(C)O5)O4)O3)C(C)CC2C)O1` (stereo not drawn) [SAL-E4], the “times less trypanocidal than its parent compound” value stood at 17. As for `CCCCNC(=O)C(CC)C1CCC(C)C(C(C)C(O)C(C)C(=O)C(CC)C2OC3(C=CC(O)C4(CCC(C)(C5CCC(O)(CC)C(C)O5)O4)O3)C(C)CC2C)O1` (stereo not drawn) [SAL-AM2, salinomycin n-butyl amide], the “times more trypanocidal than salinomycin” value was determined as 4.5. On the same count and under the same terms, with `CC[C@@]1([C@@H]2O[C@@H]([C@H]3O[C@@](O)(CO)[C@H](C)C[C@@H]3C)C[C@@H]2C)CC[C@H]([C@]2(C)CC[C@]3(C[C@H](O)[C@@H](C)[C@@H]([C@@H](C)[C@@H](OC)[C@H](C)C(=O)O)O3)O2)O1` [Monensin, monensin] the figure was 6–10.
